No constants are given. Whether binding was seen depends on the method and setting. In cells and extracts the contact can be indirect. Some binding calls cover weakened binding; strength is not graded here. For some of these results: Where a sequence is shown, tags or fusion partners need not be part of it. Values belong to the binder of their own block, whether it stands above or below them.
Tests used:
[1] = molecular target: T1, native CREM proteins from testis extract (mouse) (UniProt P27699); assay: co-immunoprecipitation from mouse testis extract with the anti-ACT antibody
T1 sequence (looked up): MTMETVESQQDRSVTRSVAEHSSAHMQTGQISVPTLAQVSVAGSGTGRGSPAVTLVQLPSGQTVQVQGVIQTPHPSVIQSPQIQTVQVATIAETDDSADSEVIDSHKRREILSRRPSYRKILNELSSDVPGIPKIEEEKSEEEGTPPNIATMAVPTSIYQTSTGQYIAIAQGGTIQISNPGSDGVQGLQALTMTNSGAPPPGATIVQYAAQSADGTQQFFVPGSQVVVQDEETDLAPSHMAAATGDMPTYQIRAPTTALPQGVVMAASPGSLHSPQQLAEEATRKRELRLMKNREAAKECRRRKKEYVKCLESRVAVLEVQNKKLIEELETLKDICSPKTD

Amino acid sequences for entries named in this document (tags omitted). A change or cut given only in a name is not applied to a line headed by its entry.
UniProt P04386: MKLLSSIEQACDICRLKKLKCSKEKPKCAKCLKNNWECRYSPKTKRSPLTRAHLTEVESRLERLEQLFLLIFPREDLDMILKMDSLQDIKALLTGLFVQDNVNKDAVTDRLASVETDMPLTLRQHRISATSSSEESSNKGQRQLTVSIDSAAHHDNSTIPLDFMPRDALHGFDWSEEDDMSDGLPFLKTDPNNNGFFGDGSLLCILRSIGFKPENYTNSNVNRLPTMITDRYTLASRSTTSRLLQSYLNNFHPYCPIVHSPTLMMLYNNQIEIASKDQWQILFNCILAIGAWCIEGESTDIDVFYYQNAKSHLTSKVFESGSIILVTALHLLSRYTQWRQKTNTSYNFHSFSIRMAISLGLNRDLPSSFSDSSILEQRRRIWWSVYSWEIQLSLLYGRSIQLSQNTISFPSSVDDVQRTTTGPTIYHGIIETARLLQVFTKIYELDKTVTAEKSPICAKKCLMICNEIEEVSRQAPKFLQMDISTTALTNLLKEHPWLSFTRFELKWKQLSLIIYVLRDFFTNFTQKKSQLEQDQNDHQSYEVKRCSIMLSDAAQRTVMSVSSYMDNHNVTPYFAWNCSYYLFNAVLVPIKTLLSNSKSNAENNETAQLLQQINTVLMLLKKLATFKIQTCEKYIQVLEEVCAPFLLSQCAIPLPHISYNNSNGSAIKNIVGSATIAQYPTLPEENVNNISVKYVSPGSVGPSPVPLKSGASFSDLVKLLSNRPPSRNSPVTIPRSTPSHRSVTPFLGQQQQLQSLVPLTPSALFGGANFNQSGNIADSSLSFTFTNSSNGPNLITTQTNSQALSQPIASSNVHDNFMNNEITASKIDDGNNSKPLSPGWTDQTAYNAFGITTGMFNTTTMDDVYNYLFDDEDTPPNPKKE

[2] = molecular target: T2, CREM (expression vector, COS cells) (UniProt P27699); assay: co-immunoprecipitation with CREM and Myc antibodies, western with the reciprocal antibody
T2 sequence (looked up): T1 sequence (looked up)

G4CREM = G4CREM (UniProt P04386); assay: co-immunoprecipitation from COS cells with Gal4-DBD antibodies, western with CREM and Myc antibodies (wild-type G4CREM as reference)
[3] = molecular target: T2, CREM (expression vector, COS cells); assay: co-immunoprecipitation from co-transfected cells with anti-CREM antibodies and, conversely, with an anti-Myc antibody

binding [1]: binds
B1: ACT (Activator of CREM in Testis) (protein)
chain: MTSSQFDCQYCTSSLIGKKYVLKDDNLYCISCYDRIFSNYCEQCKEPIESDSKDLCYKNRHWHEGCFRCNKCHHSLVEKPFVAKDDRLLCTDCYSNECSSKCFHCKRTIMPGSRKMEFKGNYWHETCFVCEHCRQPIGTKPLISKESGNYCVPCFEKEFAHYCNFCKKVITSGGITFRDQIWHKECFLCSGCRKELYEEAFMSKDDFPFCLDCYNHLYAKKCAACTKPITGLRGAKFICFQDRQWHSECFNCGKCSVSLVGEGFLTHNMEILCRKCGSGADTDA

binding [2]: binds | binding (G4CREM): binds | binding [3]: binds
B2: Myc-tagged ACT (protein, not shown: small tags and cut ends)
chain: B1 chain

Source: patent publication US6660841
